In PubChem BioAssay AID758 (NMMLSC, 2007):
Out of some 190,000 compounds screened, about 110 (0.058%) were called active. Inconclusive results, whose numbers are uncertain, are shown with a selection of clear calls.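 The calls were made as follows: active = fluorescent GTP binding to Rab7 beads changed by at least 20 points from the 100% baseline, either direction, mostly lower; inconclusive = compound itself probably fluorescent, or too few beads counted; inactive = the rest.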

tested on: Rab7 GTPase wild type (dog), Bodipy-FL-GTP binding; test: modulators of GTP binding to Rab7, primary screen, biochemical, wildtype, multiplex bead flow cytometry (AID 758); settings: GST-Rab7 beads, fluorescent GTP binding, at 10 µM, actives lie on both sides, untreated = 100%, excess cold GTP = 0%;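 also: median green fluorescence of bound Bodipy-FL-GTP per Rab7 bead population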

| SMILES | GTP binding activity (percent of control) |
| --- | --- |
| CCOC(=O)N1CCC(N2Cc3cccc(C(=O)Nc4ccc(OC)c(OC)c4)c3C2=O)CC1 | inconclusive: 85% |
| CCCNc1c(F)c(F)c2c(C)c3ccccc3nc2c1F | inconclusive: 96% |
| CSc1nc2nccc(-c3ccc(-c4ccccc4)cc3)n2n1 | inconclusive: 88% |
| COc1ccc(CCNC(=O)CSc2nc(-c3ccc(OC)c(OC)c3)ccc2C#N)cc1 | inconclusive: 98% |
| Cc1ccc(C)c(NC(=S)NC(NC(=O)N(C)C)C(Cl)(Cl)Cl)c1 (centres undefined) | inconclusive: 100% |
| O=C(NCc1ccco1)c1cc2ccccc2o1 | inconclusive: 92% |
| COc1ccc(-c2coc3cc4oc(=O)cc(C)c4cc23)cc1F | inconclusive: 100% |
| Cc1ccccc1Cn1cc(NC(=O)c2noc3c2CC(C(C)(C)C)CC3)cn1 (centres undefined) | inconclusive: 115% |
| Cc1ccc(NC(=O)CCOc2ccccc2)cc1S(=O)(=O)Nc1ccccc1Cl | inconclusive: 95% |
| Cc1cc(C(=O)Oc2ccccc2C(=O)O)c(C)o1 | inactive: 104% |
| O=C(NC1CCN(Cc2ccccc2)CC1)c1ccc(N2CC3CC(C2)c2cccc(=O)n2C3)c([N+](=O)[O-])c1 (centres undefined) | inactive: 102% |
| O=C(NC(Cc1c[nH]c2ccccc12)C(=O)O)/C(=C/c1ccco1)NC(=O)c1ccccc1 (centres undefined) | inactive: 98% |
| Cc1ccc(Nc2ccc(C(F)(F)F)cc2[N+](=O)[O-])cc1 | inconclusive: 90% |
| OC(CNCCc1ccc(Cl)cc1)COc1ccc2ccccc2c1 (centres undefined) | inactive: 90% |
| CCCn1c(=O)c(C(=O)Nc2ncccc2C)c(O)c2ccccc21 | inconclusive: 87% |
| Cc1ccc(SCC(=O)NC(=O)Nc2ccc3c(c2)OCCO3)cc1C | inconclusive: 91% |
| CCCCC(=O)Nc1cc(N(C)C)nc2ccccc12 | inconclusive: 94% |
| C/C(=C\c1ccccc1)C(=O)Nc1ccc(S(=O)(=O)Nc2ncccn2)cc1 | inactive: 103% |
| COc1ccc(NC(=O)c2cc(-c3ccc(C)o3)nc3ccccc23)cc1OC | inconclusive: 95% |
| Cc1ccc(C2=NN(S(C)(=O)=O)C(c3ccc4c(c3)OCO4)C2)cc1 (centres undefined) | inconclusive: 114% |
| Cc1cccc(NC(=O)N2CCCC2C(=O)Nc2ccccc2)c1 (centres undefined) | inconclusive: 94% |
| O=C1CCCN1CCCNc1ncnc2sccc12 | inactive: 96% |
| Cc1nn(CCCC(=O)N2CCN(c3ccc(F)cc3)CC2)c(C)c1[N+](=O)[O-] | inconclusive: 96% |
| COC(=O)C1=C(C)Nc2c(c(=O)n(C)c(=O)n2C)C1c1ccc(C)cc1 (centres undefined) | inconclusive: 92% |

| SMILES | GTP binding activity (percent of control) |
| --- | --- |
| Fc1ccc(Nc2nc3ccccc3s2)cc1 | inconclusive: 96% |
| O=C(NC1CCCCC1)C(Cc1ccccc1)N1C(=O)C2C3CCC(C3)C2C1=O (centres undefined) | inconclusive: 105% |
| COc1ccc(S(=O)(=O)N(C)C)cc1NC(=O)CSc1nnc(-c2cccnc2)o1 | inactive: 95% |
| O=c1n(Cc2ccc(Cl)cc2)c2sc3c(c2c2ncnn12)CCCC3 | inconclusive: 89% |
| ClCC1CN(Cc2ccccc2Cl)CCO1 (centres undefined) | inactive: 103% |
| Nc1c(C(=O)NCc2ccco2)c2nc3ccccc3nc2n1CCc1ccc(F)cc1 | inconclusive: 97% |
| COC(=O)c1oc2ccccc2c1NC(=O)c1ccccc1O | inconclusive: 97% |
| CCc1ccc(N(C)S(=O)(=O)c2ccc3[nH]cc(C(=O)NCCN4CCOCC4)c(=O)c3c2)cc1 | inconclusive: 102% |
| CCOC(=O)c1cnc2c(C#N)cnn2c1N | inactive: 88% |
| Cc1ccc(C(=O)N2CCOCC2)c(F)c1F | inactive: 96% |
| CCOc1ccc2cc(/C=C/C(=O)c3ccco3)c(Cl)nc2c1 | inconclusive: 114% |
| COc1ccc(/C=N/NC(=O)OC(C)(C)C)cc1OC | inactive: 98% |
| COc1ccc(C(=O)c2nccc3ccccc23)cc1 | inactive: 100% |
| O=C(Nc1cccc(Cl)c1N1CCCC1)c1ccc(Br)o1 | inconclusive: 101% |
| CC(=O)Nc1ccc(NC(=O)COC(=O)c2ccco2)cc1 | inconclusive: 92% |
| COc1ccc(CCNc2c([N+](=O)[O-])c(=O)oc3ccccc23)cc1OC | inconclusive: 113% |
| COc1cc2[nH]c(=S)nc(NC3CCCCCC3)c2cc1OC | inactive: 88% |
| CCSc1nnc(NC(=O)[C@@H](NC(=O)c2ccccc2F)C(C)C)s1 | inconclusive: 175% |
| O=C1CC(c2ccc(F)cc2)Sc2ccccc2N1 (centres undefined) | inactive: 111% |
| CCOc1ccccc1NC(=O)c1cc(Cl)ccc1NC(=O)c1ccco1 | inconclusive: 102% |
| COc1ccc(CN(C)C2CCCCC2)c(C)c1C | inconclusive: 101% |
| COc1ccc(CC(=O)Nc2cc(=O)n(C)c(=O)n2C)cc1 | inconclusive: 105% |
| Cc1cc(=O)[nH]c2c(N=Nc3ccc(O)cc3)c(N)nn12 | inactive: 84% |
| COc1ccc(/C=N/OCC(=O)N=Nc2c(O)[nH]c3ccc(Br)cc23)cc1OC | inconclusive: 96% |

| SMILES | GTP binding activity (percent of control) |
| --- | --- |
| O=C(NCC1OCCc2ccccc21)c1cc(COc2c(F)cccc2F)on1 (centres undefined) | inconclusive: 94% |
| COc1ccc(CNC(=O)CN(C)S(=O)(=O)c2ccc(Cl)cc2)cc1 | inconclusive: 96% |
| O=C(/C=C/c1ccccc1)NC(NC(=S)Nc1ccc(C(=O)O)cc1)C(Cl)(Cl)Cl (centres undefined) | inactive: 88% |
| COCCNC(=O)/C(C#N)=C/C=C/c1ccccc1[N+](=O)[O-] | inconclusive: 96% |
| CC(=O)c1cc2c(cc1NC(=O)c1cccc(S(=O)(=O)N3CCN(C)CC3)c1)OCO2 | inactive: 98% |
| O=C(Nc1ccc(Br)cn1)c1ccc([N+](=O)[O-])cc1Cl | inactive: 98% |
| O=c1nc2c(O)cccn2c2c1c(=O)[nH]c1ccccc12 | inactive: 81% |
| CCc1c(O)nc(SCC(N)=O)n(-c2ccccc2F)c1=O | inconclusive: 102% |
| COC(=O)CCC(=O)N1CCCC(CO)(Cc2ccccc2)C1 (centres undefined) | inactive: 98% |
| CN(C)S(=O)(=O)c1cc(NC(=O)CN2CCN(c3ccccc3F)CC2)ccc1Cl | inactive: 105% |
| CCC(C)(C)NC(=O)CN(Cc1cccs1)C(=O)CCC(=O)Nc1nccs1 | inconclusive: 98% |
| CC1=C(C(=O)Nc2ccc(F)c(F)c2)C(c2cccs2)NC(=S)N1 (centres undefined) | inactive: 98% |
| Cc1nc(N2CCN(c3ccccn3)CC2)c2c(C)c(C(=O)Nc3ccc(F)cc3F)sc2n1 | inconclusive: 93% |
| CC1SC(C)C(=O)N(CC(=O)NC2CCCCC2)C1=O (centres undefined) | inactive: 103% |
| O=C(NCCN1CCCCCC1)C1CC(=O)N(CCc2ccccc2)C1 (centres undefined) | inactive: 98% |
| COc1cc(N2CCOCC2)ncn1 | inconclusive: 96% |
| Cc1nn(CC(=O)Nc2cc(S(=O)(=O)N(C)C)ccc2Cl)c(C)c1[N+](=O)[O-] | inconclusive: 103% |
| Cc1ccc(S(=O)(=O)N2CCCCC2)cc1NC(=O)CSc1nnc(N)s1 | inconclusive: 100% |
| Cc1nc2sc(C(c3ccc(Cl)cc3)N3CCN(C(=O)c4ccco4)CC3)c(O)n2n1 (centres undefined) | inconclusive: 97% |
| CCOc1ccc(C(=O)NCc2ccco2)cc1 | inconclusive: 102% |
| COc1cccc(OCCNC(=O)c2cc([N+](=O)[O-])cc([N+](=O)[O-])c2)c1 | inconclusive: 90% |
| COc1ccc(/C=N/Nc2cc(C)nc(-n3nc(C)cc3C)n2)c(OC)c1 | inconclusive: 87% |
| CCN(CC)S(=O)(=O)c1cccc(NC(=O)c2ccc(C#N)cc2)c1 | inactive: 96% |
| CS(=O)(=O)N1CCC(C(=O)N2CCN(C(c3ccccc3)c3ccccc3)CC2)CC1 | inactive: 104% |

A different layout for part of the listing above:
SMILES,GTP binding activity (percent of control)
COC(=O)CCC(=O)N1CCCC(CO)(Cc2ccccc2)C1 (centres undefined),inactive: 98%
CN(C)S(=O)(=O)c1cc(NC(=O)CN2CCN(c3ccccc3F)CC2)ccc1Cl,inactive: 105%

Further results:

| SMILES | GTP binding activity (percent of control) |
| --- | --- |
| CCOC(=O)N1CCC2(CC1)C(C#N)=C(N)Oc1c2c(C)nn1-c1cccc(Cl)c1 | inconclusive: 90% |
| CCCCNC(=O)CSc1nc2ccccc2c(=O)n1CCNC(C)=O | inconclusive: 103% |
| O=C(c1cccc(F)c1)N1CCN(S(=O)(=O)c2ccccc2)CC1 | inconclusive: 106% |
| CCOc1cc(S(=O)(=O)NC2CCCCC2)ccc1F | inconclusive: 90% |
| COc1ccccc1/C=N/NC(=O)CCn1cnc2ccccc21 | inconclusive: 101% |
| CC[C@H](C)[C@H](NC(N)=O)C(=O)NCCc1ccc(Cl)cc1 | inconclusive: 90% |
| CC(=O)C1C(c2ccccc2)c2c(n[nH]c2C)CC1(C)O (centres undefined) | inconclusive: 95% |
| O=C(NC1CCCC1)C(c1ccco1)N(Cc1ccccc1)C(=O)c1csnn1 (centres undefined) | inconclusive: 93% |
| C/C(=N\Nc1nc2c(s1)CCCC2)c1ccccc1 | inconclusive: 105% |
| C/C(=C\c1ccccc1)C(=O)NCCc1ccccc1 | inactive: 100% |
| CCCN=Cc1ccc(O)cc1 | inactive: 105% |
| COc1cc(/C=N/NC(=O)c2sc(N)c(C#N)c2C)cc(Br)c1O | inconclusive: 89% |
| O=C(NC(=S)Nc1cccnc1Cl)c1ccco1 | inconclusive: 94% |
| Cc1ccc(-n2nc3cc(Cl)c(NC(=O)c4ccco4)cc3n2)cc1 | inconclusive: 108% |
| c1ccc(CNCC2COc3ccccc3O2)cc1 (centres undefined) | inconclusive: 102% |
| Cc1ccc(OCC(=O)Nc2cc(C(=O)O)cc(C(=O)O)c2)cc1C | inactive: 99% |
| CCSCCc1nnc(NC(=O)Nc2cccc(C(F)(F)F)c2)s1 | inactive: 98% |
| COc1ccccc1Nc1nc(C)cs1 | inconclusive: 104% |
| N=c1oc2ccc3ccccc3c2cc1-c1nc(-c2ccccc2)cs1 | inactive: 92% |
| CCS(=O)(=O)N1CCN(c2ccc([N+](=O)[O-])c(NCc3cccnc3)c2)CC1 | inconclusive: 99% |
| O=C1Nc2ccccc2SC(c2ccccc2)C1O (centres undefined) | inconclusive: 104% |
| COc1cc(/C=C2\C(=O)ON=C2c2ccccc2)cc(Cl)c1O | inconclusive: 93% |

3 of these compounds in another layout:
SMILES | GTP binding activity (percent of control)
CCOC(=O)c1cnc2c(C#N)cnn2c1N | inactive: 88%
Cc1ccc(C(=O)N2CCOCC2)c(F)c1F | inactive: 96%
CCOc1ccc2cc(/C=C/C(=O)c3ccco3)c(Cl)nc2c1 | inconclusive: 114%
